{"source": "PubChem BioAssay AID1508597 (Cure First, 2020)", "purpose": "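Survival screen with siRNA in ovarian cancer cells derived from patients, with or without rucaparib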 (primary screen)", "cell system": "human ovarian carcinoma lines grown from tumours: OCI-P5x (papillary serous) and OCI-C5x (clear cell)", "knock-down reagent": "siRNA pool against human genes, 1.25 pmol siRNA per well", "timing": "72 h or 96 h, depending on the cell culture", "conditions": "rucaparib 20 µM (about IC30) or vehicle, present until read-out", "read-out": "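ATP luminescence measured at 72 or 96 h according to the culture, then normalised and expressed as percent viability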", "direction": "viability, normalised: higher = more viable cells remaining", "active means": "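a well counts as a hit if its normalised viability is under 80 percent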", "calls": "active = viability under 80%; inactive = viability 80% or more", "note": "The whole screen tested about 2,100 reagents; this is a random part of them. 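Calls flag viability under 80% in either arm, not effects specific to rucaparib; the reference for percent is not stated.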 Not stated in the record: the 100% reference."}
{"gene symbol":"ZDHHC1","rucaparib or vehicle":"Rucaparib","cell line":"OCI-C5x (clear cell)","technical replicate":"1","viability, normalised (%)":64.5,"activity call":"active"}
{"gene symbol":"ZDHHC1","rucaparib or vehicle":"Rucaparib","cell line":"OCI-C5x (clear cell)","technical replicate":"2","viability, normalised (%)":55.3,"activity call":"active"}
{"gene symbol":"ZDHHC1","rucaparib or vehicle":"Rucaparib","cell line":"OCI-C5x (clear cell)","technical replicate":"3","viability, normalised (%)":52.3,"activity call":"active"}
{"gene symbol":"ZDHHC1","rucaparib or vehicle":"Rucaparib","cell line":"OCI-P5x (serous)","technical replicate":"1","viability, normalised (%)":61,"activity call":"active"}
{"gene symbol":"ZDHHC1","rucaparib or vehicle":"Rucaparib","cell line":"OCI-P5x (serous)","technical replicate":"2","viability, normalised (%)":73.2,"activity call":"active"}
{"gene symbol":"ZDHHC1","rucaparib or vehicle":"Rucaparib","cell line":"OCI-P5x (serous)","technical replicate":"3","viability, normalised (%)":57.2,"activity call":"active"}
{"gene symbol":"ZDHHC1","rucaparib or vehicle":"Vehicle","cell line":"OCI-C5x (clear cell)","technical replicate":"1","viability, normalised (%)":55.1,"activity call":"active"}
{"gene symbol":"ZDHHC1","rucaparib or vehicle":"Vehicle","cell line":"OCI-C5x (clear cell)","technical replicate":"2","viability, normalised (%)":58.4,"activity call":"active"}
{"gene symbol":"ZDHHC1","rucaparib or vehicle":"Vehicle","cell line":"OCI-C5x (clear cell)","technical replicate":"3","viability, normalised (%)":70.2,"activity call":"active"}
{"gene symbol":"ZDHHC1","rucaparib or vehicle":"Vehicle","cell line":"OCI-P5x (serous)","technical replicate":"1","viability, normalised (%)":65.4,"activity call":"active"}
{"gene symbol":"ZDHHC1","rucaparib or vehicle":"Vehicle","cell line":"OCI-P5x (serous)","technical replicate":"2","viability, normalised (%)":66.7,"activity call":"active"}
{"gene symbol":"ZDHHC1","rucaparib or vehicle":"Vehicle","cell line":"OCI-P5x (serous)","technical replicate":"3","viability, normalised (%)":50.8,"activity call":"active"}
